Experimental data reported in paper PMC2923609.
No constants are given. Whether binding was seen depends on the method and setting. Binding seen in cells or lysates may run through a third protein. For some assays here: A result given as binding can be weak or reduced; the word gives no strength. Tags and fused reporters may be left off the sequences shown. Blank lines part the entries; values can stand above or below the molecule they belong to.

How the values were obtained:
periostin-Myc = molecular target: T1, periostin-Myc (UniProt Q62009); assay: co-IP; whole-cell lysates of HEK293T cells co-expressing Notch1-FLAG and periostin-Myc; precipitated with anti-Myc antibody, blotted with anti-Notch1 (extracellular region) antibody; lysis buffer 150 mM NaCl, 100 mM Tris-Cl pH 7.4, 1% Triton X-100, 0.5% NP-40
T1 sequence: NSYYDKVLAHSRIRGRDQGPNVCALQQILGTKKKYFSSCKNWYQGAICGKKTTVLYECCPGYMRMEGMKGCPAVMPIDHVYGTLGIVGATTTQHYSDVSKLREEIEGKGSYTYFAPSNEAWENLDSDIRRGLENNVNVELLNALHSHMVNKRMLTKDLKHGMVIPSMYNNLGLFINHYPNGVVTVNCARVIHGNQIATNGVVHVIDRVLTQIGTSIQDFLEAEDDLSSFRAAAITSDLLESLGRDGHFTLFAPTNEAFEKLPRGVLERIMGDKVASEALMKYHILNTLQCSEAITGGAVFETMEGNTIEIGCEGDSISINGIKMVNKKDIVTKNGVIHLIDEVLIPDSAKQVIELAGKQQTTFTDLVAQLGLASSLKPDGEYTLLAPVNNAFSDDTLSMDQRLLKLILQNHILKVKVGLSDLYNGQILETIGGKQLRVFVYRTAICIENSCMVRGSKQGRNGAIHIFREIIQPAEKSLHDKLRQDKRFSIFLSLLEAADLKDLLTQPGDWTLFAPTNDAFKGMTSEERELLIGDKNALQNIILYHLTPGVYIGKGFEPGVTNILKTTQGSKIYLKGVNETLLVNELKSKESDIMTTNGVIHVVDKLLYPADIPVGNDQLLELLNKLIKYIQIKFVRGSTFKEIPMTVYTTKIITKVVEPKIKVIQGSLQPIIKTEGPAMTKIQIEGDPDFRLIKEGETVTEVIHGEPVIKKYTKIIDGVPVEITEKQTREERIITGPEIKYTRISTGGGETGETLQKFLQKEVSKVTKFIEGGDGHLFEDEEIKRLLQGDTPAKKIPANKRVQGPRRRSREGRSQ

EGF8-32-Myc = assay: co-IP; whole-cell lysates of HEK293T cells co-expressing NdEGF-Myc or EGF8-32-Myc and periostin-HA; precipitated with anti-Myc antibody, blotted with anti-HA antibody; lysis buffer 150 mM NaCl, 100 mM Tris-Cl pH 7.4, 1% Triton X-100, 0.5% NP-40

binding (periostin-Myc): no binding
Molecule: S1-cleaved heterodimeric Notch1 (N1^EC with N1TM-FLAG) (complex)

binding (EGF8-32-Myc): binds
B1: periostin-HA (protein, UniProt Q62009 24-838)
chain: T1 sequence
